Source: patent US20230287060, “PROTEINS AND THEIR USE FOR NUCLEOTIDE BINDING” (The University of Western Australia, published 2023)

What was measured:
[1] = test system: T1, cPPR-Telo2 (synthetic construct); assay: inhibition of the protein; settings: 5'-biotin, purified recombinant protein, protein details: GST and His tags (pETM30, E. coli), single-stranded DNA
T1 sequence: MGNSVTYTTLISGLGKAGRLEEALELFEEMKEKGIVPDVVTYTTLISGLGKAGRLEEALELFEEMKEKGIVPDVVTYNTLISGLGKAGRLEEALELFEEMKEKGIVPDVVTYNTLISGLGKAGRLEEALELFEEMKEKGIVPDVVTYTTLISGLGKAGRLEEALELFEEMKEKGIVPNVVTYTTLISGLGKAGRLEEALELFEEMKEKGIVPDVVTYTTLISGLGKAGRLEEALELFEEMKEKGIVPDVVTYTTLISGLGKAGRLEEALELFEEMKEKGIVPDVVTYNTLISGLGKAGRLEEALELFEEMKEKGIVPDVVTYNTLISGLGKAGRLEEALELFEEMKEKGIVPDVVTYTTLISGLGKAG

[2] = test system: T2, cPPR-Telo1 (synthetic construct); assay: inhibition of the protein; settings: 5'-biotin; blocks telomerase extension dose-dependently, 50-300 nM protein; maintained with excess competitor ssDNA; purified recombinant protein; protein details: GST and His tags (pETM30, E. coli); single-stranded DNA
T2 sequence: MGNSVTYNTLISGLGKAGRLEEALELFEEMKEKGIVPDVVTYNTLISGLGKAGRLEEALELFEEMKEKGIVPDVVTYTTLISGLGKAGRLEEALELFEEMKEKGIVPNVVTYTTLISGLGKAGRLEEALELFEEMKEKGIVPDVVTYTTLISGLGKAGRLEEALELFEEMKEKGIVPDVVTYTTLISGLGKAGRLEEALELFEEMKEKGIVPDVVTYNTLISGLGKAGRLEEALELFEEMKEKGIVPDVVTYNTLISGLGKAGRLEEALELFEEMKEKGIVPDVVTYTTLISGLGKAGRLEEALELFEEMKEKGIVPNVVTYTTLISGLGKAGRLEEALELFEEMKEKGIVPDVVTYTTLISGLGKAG

[3] = blocks telomerase extension, 200-300 nM protein

| Sequence | activity on this sequence [1, 3] | activity on this sequence [2] | activity on this sequence ([1]; blocks telomerase extension dose-dependently, 50-300 nM protein) |
| --- | --- | --- | --- |
| CTAGACCTGTCATCATTAGGGTTAGGGTTAGGGTT [Telo 20 primer] | active |  |  |
| CTAGACCTGTCATCATTAGGGTTAGGGTTAG [Telo 16 primer] | active |  |  |
| CTAGACCTGTCATCATTAGGGTTAGGGTT [Telo 14 primer] | active |  |  |
| CTAGACCTGTCATCATTAGGGTTAGGGTTAGGG [Telo 18 primer] |  | active | active |

Where a protein sequence is shown, tags need not be part of it.
